Results are given in words; binding and its absence hold for the method and conditions named. Binding seen in cells or lysates may run through a third protein. Some results given as binding are weak or reduced against the parent protein; the word gives no strength.
Key:
[1] = biological target: metabotropic glutamate receptor 5a (mGluR5a), rat, expressed from the L7-mGluR5a transgene in mouse Purkinje cells (rat) (UniProt P31424); test: co-IP; synaptosomal fraction of cerebella from wild-type, L7-mGluR5 Tg or mGluR5-rescue mice, solubilised in 50 mM Tris-HCl pH 7.4, 150 mM NaCl, 1% NP-40; incubated overnight with antibody to mGluR1 or mGluR5 (control mouse or rabbit IgG), protein G Sepharose; immunoblot for mGluR5, mGluR1 and Pan-Homer
[2] = biological target: metabotropic glutamate receptor 1 (mGluR1), endogenous mouse (mouse (endogenous in cerebellum)) (UniProt P97772); test: as above

The chains behind the UniProt entries cited, without tags or fusion partners. Where a name states a change or a piece, a line headed by the entry shows the natural chain unless it says otherwise. A line that says so, or that is headed by a name, gives the form on record, which may keep a tag or linker. Residues count along the entry.
metabotropic glutamate receptor 5a (mGluR5a), rat, expressed from the L7-mGluR5a transgene in mouse Purkinje cells (P31424-2, form named): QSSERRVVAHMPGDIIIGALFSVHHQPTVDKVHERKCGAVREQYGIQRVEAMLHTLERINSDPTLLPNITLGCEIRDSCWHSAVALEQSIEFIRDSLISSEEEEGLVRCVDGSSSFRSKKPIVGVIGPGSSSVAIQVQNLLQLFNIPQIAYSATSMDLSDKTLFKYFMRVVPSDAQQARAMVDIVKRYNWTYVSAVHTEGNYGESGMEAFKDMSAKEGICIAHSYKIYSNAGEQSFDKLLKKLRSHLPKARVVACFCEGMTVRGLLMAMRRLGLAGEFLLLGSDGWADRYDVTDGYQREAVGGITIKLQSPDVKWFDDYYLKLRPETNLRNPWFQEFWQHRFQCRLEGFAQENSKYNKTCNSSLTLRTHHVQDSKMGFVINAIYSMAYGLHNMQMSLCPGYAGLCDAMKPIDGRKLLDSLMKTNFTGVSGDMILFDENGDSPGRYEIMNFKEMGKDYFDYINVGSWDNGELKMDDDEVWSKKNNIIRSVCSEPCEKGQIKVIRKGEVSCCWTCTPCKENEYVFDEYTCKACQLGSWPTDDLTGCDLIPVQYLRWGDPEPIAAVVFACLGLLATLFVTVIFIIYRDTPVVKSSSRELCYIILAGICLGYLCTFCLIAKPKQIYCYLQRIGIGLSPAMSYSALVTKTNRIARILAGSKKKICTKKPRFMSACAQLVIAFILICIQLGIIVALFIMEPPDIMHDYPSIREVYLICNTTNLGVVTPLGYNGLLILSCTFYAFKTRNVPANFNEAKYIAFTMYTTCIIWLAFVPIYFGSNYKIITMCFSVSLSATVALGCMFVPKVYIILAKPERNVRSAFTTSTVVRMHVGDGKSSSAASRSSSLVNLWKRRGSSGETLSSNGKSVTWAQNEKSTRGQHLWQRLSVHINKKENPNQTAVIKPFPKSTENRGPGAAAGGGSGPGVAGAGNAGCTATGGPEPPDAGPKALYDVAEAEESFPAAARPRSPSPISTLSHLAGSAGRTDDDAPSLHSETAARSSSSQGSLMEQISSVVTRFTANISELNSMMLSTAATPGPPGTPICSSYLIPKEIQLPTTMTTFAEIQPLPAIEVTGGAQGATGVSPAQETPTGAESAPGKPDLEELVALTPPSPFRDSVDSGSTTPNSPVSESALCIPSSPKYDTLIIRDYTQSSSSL
UniProt P97772, residues 21-1199: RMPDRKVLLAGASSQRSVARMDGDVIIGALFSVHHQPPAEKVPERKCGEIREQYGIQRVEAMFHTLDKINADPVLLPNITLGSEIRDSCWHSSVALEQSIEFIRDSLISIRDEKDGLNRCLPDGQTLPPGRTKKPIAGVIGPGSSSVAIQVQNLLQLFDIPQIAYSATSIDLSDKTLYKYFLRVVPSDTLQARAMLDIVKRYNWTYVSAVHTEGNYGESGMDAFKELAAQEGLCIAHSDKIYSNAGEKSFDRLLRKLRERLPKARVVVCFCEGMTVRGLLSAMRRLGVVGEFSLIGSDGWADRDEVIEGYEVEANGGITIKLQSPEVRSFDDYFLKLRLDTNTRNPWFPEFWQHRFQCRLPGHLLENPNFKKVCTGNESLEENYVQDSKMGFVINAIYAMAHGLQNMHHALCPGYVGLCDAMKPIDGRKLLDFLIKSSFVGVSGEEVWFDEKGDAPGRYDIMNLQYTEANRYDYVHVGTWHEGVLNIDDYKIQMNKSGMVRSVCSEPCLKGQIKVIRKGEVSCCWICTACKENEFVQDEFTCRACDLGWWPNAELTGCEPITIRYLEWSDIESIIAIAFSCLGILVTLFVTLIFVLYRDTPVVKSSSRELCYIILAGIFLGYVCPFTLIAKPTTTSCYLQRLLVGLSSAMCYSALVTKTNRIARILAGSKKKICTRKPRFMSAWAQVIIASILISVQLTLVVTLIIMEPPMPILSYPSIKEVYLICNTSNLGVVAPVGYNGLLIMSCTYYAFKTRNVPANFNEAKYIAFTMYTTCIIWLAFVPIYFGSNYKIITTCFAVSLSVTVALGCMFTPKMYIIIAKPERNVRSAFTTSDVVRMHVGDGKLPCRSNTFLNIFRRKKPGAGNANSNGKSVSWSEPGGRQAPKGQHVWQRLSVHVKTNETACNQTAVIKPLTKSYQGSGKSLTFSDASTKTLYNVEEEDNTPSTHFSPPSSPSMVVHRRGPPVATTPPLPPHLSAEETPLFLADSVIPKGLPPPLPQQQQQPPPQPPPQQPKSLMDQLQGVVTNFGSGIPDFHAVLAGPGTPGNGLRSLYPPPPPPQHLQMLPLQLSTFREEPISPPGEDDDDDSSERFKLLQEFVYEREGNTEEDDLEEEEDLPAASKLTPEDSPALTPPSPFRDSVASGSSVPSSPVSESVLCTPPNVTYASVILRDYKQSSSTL

| binding [1] | binding [2] | Substance |
| --- | --- | --- |
| binds | – | metabotropic glutamate receptor 1 (mGluR1), endogenous mouse (from UniProt P97772 21-1199) |
| – | binds | metabotropic glutamate receptor 5a (mGluR5a), rat, expressed from the L7-mGluR5a transgene in mouse Purkinje cells (from UniProt P31424-2 21-1171) |

From PMC9265771
